SMILES strings stand for the structures. The list shows a part of the results. The main result of the screen is listed elsewhere. These columns were measured beside it and carry no call. Most of these compounds were active or inconclusive in the main read-out, so they are no random draw. The note in brackets gives the kind of curve behind each potency; many fits are weak.

A short description of this assay: qHTS Assay for Identifying the Cell-Membrane Permeable IMPase Inhibitors. The following applies: CHO-M1 cells, IP1 accumulation, HTRF TR-FRET ratio; measured here: donor channel 620 nm AC50.
As usually defined, the AC50 is the midpoint of the concentration-response curve, whichever way the signal moves. In the case of `Cc1cccc(C)c1OCC(=O)Nc1c(C(=O)c2ccccc2)oc2ccccc12`, the AC50 is 25.1 µM [rising, single point].

As for `O=C(O)c1ccc(Nc2nc3ccccc3c3nncn23)cc1`, the AC50 was 6.31 µM [falling, single point].

As to `Cn1nc(-c2ccc(OCC(=O)Nc3cccc(C(F)(F)F)c3)cc2)c2ccccc2c1=O`, the AC50 is 0.0794 µM [falling, single point].

As for `O=[N+]([O-])c1cccc2ccc(/C=C/c3ccc(Cl)cc3)nc12`, the AC50 was 25.1 µM [falling, single point].

Regarding `COc1ccc(-c2noc(CCCOc3ccccc3)n2)cc1OC`, the AC50 is 31.6 µM [rising, single point].

Turning to `COc1cccc(CNc2nc3nc4c(c(=O)n3[nH]2)CCC4)c1`, the AC50 was 5.01 µM [rising, partial curve, poor fit].

As to `CCOC(=O)CNC(=O)Cn1cnc2ccc(S(=O)(=O)N3CCC(C)CC3)cc2c1=O`, the AC50 is 5.01 µM [falling, single point].

Take `CSc1cccc(NC(=O)c2c(Cl)cnn2C)c1`: the AC50 is 6.31 µM [rising, single point].

`O=C(/C=C/c1ccccc1Cl)NCCc1ccccc1`: the AC50 was 0.316 µM [rising, full curve, poor fit].

With `CCn1c(CSc2nnc(-c3ccoc3C)n2C)nc2cc(S(=O)(=O)N(C)C)ccc21`, the AC50 is 0.0316 µM [falling, full curve, poor fit].

For `CCC(Oc1ccccc1)C(=O)Nc1ccc(S(=O)(=O)NCC2CCCO2)cc1` (configuration not stated), the AC50 was 0.0158 µM [rising, full curve, poor fit].

As to `CCNCCC(=O)N1c2ccccc2Sc2ccc(NC(=O)OCC)cc21`, the AC50 is 0.0501 µM [falling, full curve, poor fit].

In the case of `CCOC(=O)C1CCCN(C(=O)c2cnn3c(C(F)(F)F)cc(-c4ccccc4)nc23)C1` (configuration not stated), the AC50 was 0.00501 µM [falling, full curve, poor fit].

For the compound `Cc1nnc(NC(=O)c2ccc3ccccc3c2)o1`, the AC50 was 0.794 µM [rising, full curve, poor fit].

In the case of `O=C(c1ccco1)n1nc(-c2ccc(Cl)cc2)nc1NCc1ccccc1`, the AC50 was 3.55 µM [rising, single point].

For the compound `CCCSc1nnc(Cc2cc(=O)[nH]c(=O)[nH]2)n1-c1cc(C)ccc1C`, the AC50 was 31.6 µM [rising, partial curve].

As for `CCOc1ccccc1OCCn1ncc2ccc(OC)c(OC)c2c1=O`, the AC50 is 0.0501 µM [rising, full curve, poor fit].

As for `COc1ccc(NC(=O)c2ccccn2)cc1`, the AC50 was 7.94 µM [falling, partial curve].

Consider `CC(C)NC(=O)CSc1nc(-c2cccs2)cc(-c2ccccc2)c1C#N`, for which the AC50 is 25.1 µM [rising, single point].

Turning to `O=c1cc(O)cc(/C=C\c2ccc(O)c(O)c2)o1`, the AC50 was 12.6 µM [falling, partial curve, poor fit].

For the compound `COc1ccc(N2CCN(Cc3oc(CO)cc(=O)c3O)CC2)cc1`, the AC50 is 0.794 µM [falling, full curve, poor fit].

For `COc1cccc(CSc2nnc(-c3ccc(F)cc3)o2)c1`, the AC50 was 11.2 µM [falling, partial curve].

As to `COc1ccc(/C=C2/SC(=O)N(CCC(=O)Nc3ccccc3)C2=O)cc1OC`, the AC50 is 31.6 µM [rising, single point].

Regarding `Cc1ccccc1Nc1c(-c2cccc(N(C)C)c2)nc2ccc(Br)cn12`, the AC50 is 0.0316 µM [falling, full curve, poor fit].

Consider `COc1cccc(-c2nn(C)c3sc(C(=O)NCc4ccccn4)cc23)c1`, for which the AC50 is 0.141 µM [falling, full curve, poor fit].

Consider `Cc1ccc(SCc2cc(-c3ccc(Cl)cc3)on2)cc1`, for which the AC50 was 0.00398 µM [rising, full curve, poor fit].

As for `Cc1noc(C)c1COc1cccc(C(=O)N2CCN(C/C=C/c3ccccc3)CC2)c1`, the AC50 was 0.631 µM [falling, full curve].

On to `COc1ccc(-n2c(Cc3cccn3C)nnc2SCC(=O)NCc2ccc(F)cc2)cc1`, for which the concentration at half-maximal activity (AC50) was 20 µM [rising, partial curve].

Regarding `CCOC(=O)C(C)(C)Sc1nc2c(cnn2-c2ccc(C)cc2)c(=O)[nH]1`, the AC50 was 0.2 µM [falling, full curve].

In the case of `CC1=C(C(=O)OC(C)C)C(c2ccsc2)NC(=O)N1C` (configuration not stated), the AC50 is 0.1 µM [falling, partial curve, poor fit].

In the case of `CC(Sc1nc(N2CCOCC2)c2c(c1C#N)CC(C)(C)OC2)C(=O)Nc1ccccc1` (configuration not stated), the AC50 was 31.6 µM [rising, single point].

Take `COc1ccc(NC(=O)CSc2nccn2-c2ccccc2)cc1`: the AC50 is 3.98 µM [rising, single point].

Turning to `CCCNC(=O)NC(=O)COc1ccc2oc3ccccc3c2c1`, the AC50 was 0.0316 µM [falling, partial curve, poor fit].

As to `Cc1cc2c(N)cccc2nn1`, the AC50 is 10 µM [falling, partial curve].

For the compound `CCOC(=O)c1sc(C)c(C(=O)NC2CCCCC2)c1N`, the AC50 was 3.98 µM [rising, full curve, poor fit].

Turning to `Cc1ccc(-n2cc(C(=O)c3ccc(F)cc3)nn2)cc1Cl`, the AC50 was 20 µM [rising, single point].

`Nc1ccc(-c2nc3ccc(C(=O)O)cc3s2)cc1`: the AC50 was 12.6 µM [rising, single point].

Take `CCCCn1c(=O)c(CCC(=O)OC(C)C(=O)Nc2cccc(Cl)c2Cl)nc2ccccc21` (configuration not stated): the AC50 is 0.501 µM [falling, full curve].

Consider `CCOc1ccc(C(=O)/C=C/c2ccccc2C(F)(F)F)cc1`, for which the AC50 is 3.98 µM [rising, partial curve].

`CCn1c(C)cc(=S)c2ccccc21`: the AC50 is 10 µM [rising, single point].

Consider `CCCCc1cc(=O)oc2c(CN(C)C)c(O)ccc12`, for which the AC50 is 31.6 µM [rising, single point].

`Cc1ccc(CNc2cnn(C34CC5CC(CC(C5)C3)C4)c(=O)c2Cl)cc1`: the AC50 is 20 µM [falling, single point].

On to `O=C(CSc1nnc(CNc2ccc(F)cc2)n1Cc1ccccc1)NCc1ccccc1`, for which the AC50 is 0.2 µM [rising, partial curve].

Consider `COC(=O)C1=C(C)OC(N)=C(C#N)C1c1ccco1` (configuration not stated), for which the AC50 was 1 µM [falling, full curve].

For the compound `CCn1c(C)c(CCC(=O)O)c(=O)n2nc(-c3ccccc3OC)cc12`, the AC50 was 3.16 µM [rising, single point].

In the case of `Cc1cc(OCCn2cc(C(=O)c3cccs3)c3ccccc32)ccc1Cl`, the AC50 is 0.00316 µM [rising, full curve, poor fit].

Regarding `Cc1noc(C)c1S(=O)(=O)N1CCC(C(=O)N2CCC(C)CC2)CC1`, the AC50 was 25.1 µM [falling, single point].

For the compound `Cc1ccc(NC(=O)CSc2nnc(CNC(=O)C34CC5CC(CC(C5)C3)C4)n2-c2ccc(F)cc2)cc1`, the AC50 was 14.1 µM [falling, partial curve, poor fit].

Consider `CC1CCN(S(=O)(=O)c2ccc(Cl)cc2)CC1`, for which the AC50 was 3.16 µM [rising, single point].

In the case of `COc1ccccc1C(=O)N1CCC(C(=O)c2ccc(F)cc2)CC1`, the AC50 is 2.51 µM [rising, full curve].

On to `O=C(CC1(O)C(=O)Nc2cc(Cl)cc(Cl)c21)c1ccccc1O` (configuration not stated), for which the AC50 is 7.94 µM [falling, partial curve].

Turning to `O=C(O)COc1ccc(-c2nccc(-c3cccs3)n2)cc1`, the AC50 is 15.8 µM [rising, single point].

Regarding `O=C(Cc1ccc(-n2cnnn2)cc1)NC12CC3CC(CC(C3)C1)C2`, the AC50 is 0.355 µM [rising, partial curve, poor fit].

Regarding `CCN(CC)C(=O)CSc1nc(-c2ccco2)cc(C(F)(F)F)c1C#N`, the AC50 is 2.51 µM [falling, single point].

On to `COCc1cc(C(C)=O)ccc1OC`, for which the AC50 is 1 µM [falling, single point].

Take `Cc1ccc2oc(-c3cccc(NC(=O)c4cc(-n5cnnc5)ccc4Cl)c3)nc2c1`: the AC50 was 25.1 µM [rising, single point].

As to `O=c1c2cc(Br)cc(Br)c2oc2nc3n(c(=O)c12)CCCS3`, the AC50 is 31.6 µM [rising, single point].

`O=C(COC(=O)CNC(=O)c1ccccc1)Nc1cccc(Br)c1`: the AC50 is 0.0112 µM [falling, full curve, poor fit].

With `COC(=O)c1sc(-c2ccccc2)cc1NC(=O)c1ccc(F)cc1`, the AC50 was 2.51 µM [rising, full curve, poor fit].

As for `O=C(OCC(=O)N1CCN(C(=O)c2ccco2)CC1)c1ccccc1OCc1ccccc1`, the AC50 is 7.94 µM [falling, partial curve, poor fit].

With `COc1cc(OC)cc(C(=O)N2CCCc3ccccc32)c1`, the half-maximal activity concentration (AC50) is 5.01 µM [rising, partial curve].

In the case of `COc1cc(CNc2ccc3[nH]c(=O)[nH]c3c2)ccc1OCC(=O)NC(C)(C)C`, the AC50 is 7.94 µM [falling, single point].

With `CCOC(=O)c1c(C#N)cnn1-c1ccc(C)cc1`, the AC50 was 0.0251 µM [falling, single point].

For the compound `O=C1OC(N2CCN(C/C=C/c3ccccc3)CC2)c2ccccc21` (configuration not stated), the AC50 is 0.0398 µM [rising, full curve, poor fit].

As for `Cc1cc(C)n2nc(SCC(=O)Nc3ccc(O)cc3)nc2n1`, the AC50 was 0.178 µM [falling, full curve, poor fit].

For the compound `CCc1ccccc1NC(=S)NCc1ccc2c(c1)OCO2`, the AC50 was 6.31 µM [rising, single point].

`Cc1ccc2c3c([nH]c2c1C)-c1nonc1CC3`: the AC50 was 3.16 µM [falling, single point].

The record behind these values is PubChem BioAssay AID901 (National Center for Advancing Translational Sciences (NCATS), 2007).
